# According to publication PMC5227109:
# Results are given in words; binding and its absence hold for the method and conditions named. Some results given as binding are weak or reduced against the parent protein; the word gives no strength.
# T1: S. cerevisiae Scc2, recombinant (the Scc2 chain of m2) (S. cerevisiae) (UniProt Q04002)
# T1 sequence: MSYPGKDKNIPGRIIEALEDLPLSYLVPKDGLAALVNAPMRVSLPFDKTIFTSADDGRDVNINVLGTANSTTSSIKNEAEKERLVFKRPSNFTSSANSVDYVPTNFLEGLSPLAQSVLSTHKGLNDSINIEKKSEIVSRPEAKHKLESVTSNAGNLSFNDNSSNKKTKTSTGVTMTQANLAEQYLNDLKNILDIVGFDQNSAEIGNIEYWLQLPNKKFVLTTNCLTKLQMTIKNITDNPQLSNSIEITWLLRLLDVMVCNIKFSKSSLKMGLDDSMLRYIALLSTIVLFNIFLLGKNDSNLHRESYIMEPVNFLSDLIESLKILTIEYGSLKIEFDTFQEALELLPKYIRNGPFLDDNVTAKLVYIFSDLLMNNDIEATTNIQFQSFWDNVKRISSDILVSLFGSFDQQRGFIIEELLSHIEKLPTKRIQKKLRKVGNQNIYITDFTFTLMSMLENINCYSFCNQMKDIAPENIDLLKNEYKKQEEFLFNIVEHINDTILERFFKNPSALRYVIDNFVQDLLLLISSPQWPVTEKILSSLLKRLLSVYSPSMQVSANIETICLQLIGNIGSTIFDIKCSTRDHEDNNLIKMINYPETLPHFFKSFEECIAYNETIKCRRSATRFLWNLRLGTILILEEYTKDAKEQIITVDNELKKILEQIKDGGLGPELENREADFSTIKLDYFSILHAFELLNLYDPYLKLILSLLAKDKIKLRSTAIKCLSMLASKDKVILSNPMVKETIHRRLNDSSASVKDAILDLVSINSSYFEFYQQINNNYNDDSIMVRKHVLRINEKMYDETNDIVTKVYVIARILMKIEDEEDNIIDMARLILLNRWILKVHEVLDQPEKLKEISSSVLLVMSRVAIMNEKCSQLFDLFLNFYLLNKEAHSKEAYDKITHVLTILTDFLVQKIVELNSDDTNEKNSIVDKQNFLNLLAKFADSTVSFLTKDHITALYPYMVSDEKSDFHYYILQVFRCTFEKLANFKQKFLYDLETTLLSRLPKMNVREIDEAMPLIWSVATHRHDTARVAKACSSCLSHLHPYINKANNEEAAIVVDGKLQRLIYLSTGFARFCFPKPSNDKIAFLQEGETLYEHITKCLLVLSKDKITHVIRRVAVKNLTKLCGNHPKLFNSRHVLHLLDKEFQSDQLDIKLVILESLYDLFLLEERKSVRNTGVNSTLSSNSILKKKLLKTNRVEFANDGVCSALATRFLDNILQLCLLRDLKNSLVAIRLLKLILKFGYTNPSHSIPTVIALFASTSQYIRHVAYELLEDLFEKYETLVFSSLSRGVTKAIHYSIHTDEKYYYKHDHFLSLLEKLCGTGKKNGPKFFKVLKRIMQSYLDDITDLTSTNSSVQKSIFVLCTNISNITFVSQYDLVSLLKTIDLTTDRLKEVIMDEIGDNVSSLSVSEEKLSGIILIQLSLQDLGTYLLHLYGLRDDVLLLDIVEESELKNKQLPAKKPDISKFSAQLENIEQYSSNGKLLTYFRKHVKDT
# T2: S. cerevisiae Smc1, recombinant (the Smc1 chain of m1) (S. cerevisiae), P32908
# T2 chain: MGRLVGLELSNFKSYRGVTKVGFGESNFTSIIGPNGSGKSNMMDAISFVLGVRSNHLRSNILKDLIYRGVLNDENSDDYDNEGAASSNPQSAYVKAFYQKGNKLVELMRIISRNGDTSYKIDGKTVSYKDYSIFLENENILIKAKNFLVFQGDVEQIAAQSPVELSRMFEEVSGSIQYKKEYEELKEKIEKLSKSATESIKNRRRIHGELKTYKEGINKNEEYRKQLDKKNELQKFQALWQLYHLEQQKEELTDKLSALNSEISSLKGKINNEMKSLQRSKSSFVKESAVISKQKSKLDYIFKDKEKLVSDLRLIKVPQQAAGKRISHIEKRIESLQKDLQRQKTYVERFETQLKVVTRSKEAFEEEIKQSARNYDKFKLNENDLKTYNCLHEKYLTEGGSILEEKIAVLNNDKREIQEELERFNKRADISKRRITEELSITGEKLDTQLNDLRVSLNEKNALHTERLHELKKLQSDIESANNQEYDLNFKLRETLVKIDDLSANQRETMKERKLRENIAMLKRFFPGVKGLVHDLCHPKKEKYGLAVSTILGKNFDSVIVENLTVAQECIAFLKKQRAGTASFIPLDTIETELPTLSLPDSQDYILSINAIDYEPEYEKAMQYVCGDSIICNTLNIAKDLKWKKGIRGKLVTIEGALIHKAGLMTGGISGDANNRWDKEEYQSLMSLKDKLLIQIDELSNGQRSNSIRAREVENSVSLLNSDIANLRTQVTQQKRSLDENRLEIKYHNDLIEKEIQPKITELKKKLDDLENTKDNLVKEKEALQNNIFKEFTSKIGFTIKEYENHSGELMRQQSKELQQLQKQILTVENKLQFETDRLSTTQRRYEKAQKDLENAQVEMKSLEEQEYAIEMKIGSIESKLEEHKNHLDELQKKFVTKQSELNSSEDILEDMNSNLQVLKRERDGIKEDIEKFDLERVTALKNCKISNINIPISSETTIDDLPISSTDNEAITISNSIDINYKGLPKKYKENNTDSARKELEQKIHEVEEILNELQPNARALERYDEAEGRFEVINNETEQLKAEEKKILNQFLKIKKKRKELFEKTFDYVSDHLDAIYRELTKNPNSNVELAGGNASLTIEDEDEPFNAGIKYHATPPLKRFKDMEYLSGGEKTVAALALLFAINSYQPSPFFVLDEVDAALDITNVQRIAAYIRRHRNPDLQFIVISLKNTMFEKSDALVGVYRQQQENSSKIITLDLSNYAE
# What was measured:
# [1] = target: T1, S. cerevisiae Scc2, recombinant (the Scc2 chain of m2) (S. cerevisiae); assay: cross-linking; XL-MS: 0.4 μM cohesin, 0.8 μM full-length Scc2–Scc4 and 0.8 μM 56-bp dsDNA in 20 mM HEPES pH 7.5, 50 mM NaCl, 5 mM DTT, 5 mM MgCl2, 1 mM ATP, 10% glycerol; 5–8 mM d0/d12 DSS, 28 °C 40 min; xQuest/xProphet, FDR 1%; both purified
# [2] = target: T1, S. cerevisiae Scc2, recombinant (the Scc2 chain of m2) (S. cerevisiae); assay: co-purification; Scc2 (C-terminal double Strep-tag II) and Scc4 co-expressed in High 5 cells; Strep-Tactin, Poros HQ50 anion exchange, Superdex 200 SEC; final buffer 10 mM imidazole pH 7, 300 mM NaCl, 0.5 mM TCEP
# [3] = target: T2, S. cerevisiae Smc1, recombinant (the …); assay: cross-linking; XL-MS: 0.4 μM cohesin, 0.8 μM full-length Scc2–Scc4 and 0.8 μM 56-bp dsDNA in 20 mM HEPES pH 7.5, 50 mM NaCl, 5 mM DTT, 5 mM MgCl2, 1 mM ATP, 10% glycerol; 5–8 mM d0/d12 DSS, 28 °C 40 min; xQuest/xProphet, FDR 1%; both purified; conditions: remark: other sources report otherwise
binding [1],binding [2],binding [3],Binder
binds,binds,–,"S. cerevisiae Scc4, recombinant (the Scc4 chain of m2) (protein, UniProt P40090 1-624) MENLGDKLSISQVYHLAQEYRDHAYSIANKIGSEEGLKQYYGLMNMSIQMFQLLKTKCTLSVLEDSKVTFEMVELLIQETYNFDLAELYISSLKERLQTHQSDTDLVEEIMRCEFLLLHDLPLMRDSKFHYKIALRNCNELVQYMVNLQDELYQNWASVFQYVGVMLCIKLKQHRRVKTSFHGLLSQCREKSQWKWFLNLCYVNYLLNERFPIPEDALQELRSTELHTVGPELYAWKLALEMVIQLCKDGNITDHLNEFKNFFDTNKQSLVTNEGKGCVIKIMPRIALKVELPMIFHYKELKNILLLLQSVSYIVNCYDEKGNFSRKFLPKVYSTTQKLIKNIAAGGVSMNELDSRIQTYKSILEFCEFYKVWEQTLLKGAVVTTESPKLGPSPGYVRLLQAMKVQFEGGGAVEEYTRLAQSGGTSSEVKMISLLNCYTVQAARVSRCSGDKQGELVEQCNKVWLQVEKLLQETDLQFNPIWECTVTILWLFSHFEPFSWNPLPCSDKQRAEYVSKLREFYSSNKFVAGEAVADNRFKLKKALLLQILVNYLGGRMLEHDLGEIYAISAKCFDMCRQQGGMRKVQYVIGIWHLMNCTVAMRGKDVALTNAKLEALVKQITSVKQ"
–,–,binds,"S. cerevisiae Scc2, recombinant (the Scc2 chain of m2), Q04002 1-1493 (protein) MSYPGKDKNIPGRIIEALEDLPLSYLVPKDGLAALVNAPMRVSLPFDKTIFTSADDGRDVNINVLGTANSTTSSIKNEAEKERLVFKRPSNFTSSANSVDYVPTNFLEGLSPLAQSVLSTHKGLNDSINIEKKSEIVSRPEAKHKLESVTSNAGNLSFNDNSSNKKTKTSTGVTMTQANLAEQYLNDLKNILDIVGFDQNSAEIGNIEYWLQLPNKKFVLTTNCLTKLQMTIKNITDNPQLSNSIEITWLLRLLDVMVCNIKFSKSSLKMGLDDSMLRYIALLSTIVLFNIFLLGKNDSNLHRESYIMEPVNFLSDLIESLKILTIEYGSLKIEFDTFQEALELLPKYIRNGPFLDDNVTAKLVYIFSDLLMNNDIEATTNIQFQSFWDNVKRISSDILVSLFGSFDQQRGFIIEELLSHIEKLPTKRIQKKLRKVGNQNIYITDFTFTLMSMLENINCYSFCNQMKDIAPENIDLLKNEYKKQEEFLFNIVEHINDTILERFFKNPSALRYVIDNFVQDLLLLISSPQWPVTEKILSSLLKRLLSVYSPSMQVSANIETICLQLIGNIGSTIFDIKCSTRDHEDNNLIKMINYPETLPHFFKSFEECIAYNETIKCRRSATRFLWNLRLGTILILEEYTKDAKEQIITVDNELKKILEQIKDGGLGPELENREADFSTIKLDYFSILHAFELLNLYDPYLKLILSLLAKDKIKLRSTAIKCLSMLASKDKVILSNPMVKETIHRRLNDSSASVKDAILDLVSINSSYFEFYQQINNNYNDDSIMVRKHVLRINEKMYDETNDIVTKVYVIARILMKIEDEEDNIIDMARLILLNRWILKVHEVLDQPEKLKEISSSVLLVMSRVAIMNEKCSQLFDLFLNFYLLNKEAHSKEAYDKITHVLTILTDFLVQKIVELNSDDTNEKNSIVDKQNFLNLLAKFADSTVSFLTKDHITALYPYMVSDEKSDFHYYILQVFRCTFEKLANFKQKFLYDLETTLLSRLPKMNVREIDEAMPLIWSVATHRHDTARVAKACSSCLSHLHPYINKANNEEAAIVVDGKLQRLIYLSTGFARFCFPKPSNDKIAFLQEGETLYEHITKCLLVLSKDKITHVIRRVAVKNLTKLCGNHPKLFNSRHVLHLLDKEFQSDQLDIKLVILESLYDLFLLEERKSVRNTGVNSTLSSNSILKKKLLKTNRVEFANDGVCSALATRFLDNILQLCLLRDLKNSLVAIRLLKLILKFGYTNPSHSIPTVIALFASTSQYIRHVAYELLEDLFEKYETLVFSSLSRGVTKAIHYSIHTDEKYYYKHDHFLSLLEKLCGTGKKNGPKFFKVLKRIMQSYLDDITDLTSTNSSVQKSIFVLCTNISNITFVSQYDLVSLLKTIDLTTDRLKEVIMDEIGDNVSSLSVSEEKLSGIILIQLSLQDLGTYLLHLYGLRDDVLLLDIVEESELKNKQLPAKKPDISKFSAQLENIEQYSSNGKLLTYFRKHVKDT"
